# According to patent publication US20080139573A1, “Treatment of resistant Schizophrenia and other CNS disorders” (Copharm, priority 2006, published 2008):
# At least one compound was matched to its structure with a doubt left.
# Key:
# Type in all cases: in vivo, human
# [1] = tested on: recurrent depression patient; test: Case report: recurrent depression, switched to oral zuclopenthixol; conditions: appropriate doses, sufficient duration, compliance ascertained
# Excerpt: Recurrent depressive patient is defined as a patient experiencing two or more successive major depressive episodes that are separated by at least two months of not experiencing adequate symptoms of depression to qualify for major depressive disorder (DSM-IV).
# Subject diagnosed with recurrent depression for the first time. […] Compliance with treatment was ascertained. […] After 2 years, the patient had still not relapsed.
# [2] = tested on: therapy resistant bipolar disorder patient; test: Case reports: therapy resistant bipolar disorder, prescribed oral zuclopenthixol; conditions: appropriate doses, sufficient duration, compliance ascertained
# Excerpt: Resistant bipolar disorder patient is defined as a patient not responding to an appropriate pharmacological treatment.
# Case 1. Subject diagnosed with therapy resistant bipolar disorder I presented as having manic state. They had been diagnosed for the first time. […] Compliance with treatment was ascertained. They were then prescribed oral zuclopenthixol. Before initiating oral zuclopenthixol treatment, the patient was considered as “among the most extremely ill patients”. After 8 weeks of treatment with zuclopenthixol, the patient was evaluated as having “much improved”.
# Case 2. Subject diagnosed with therapy resistant bipolar disorder 11 presented with depressive symptoms. They had been diagnosed for the first time. […] Compliance with treatment was ascertained. They were then prescribed oral zuclopenthixol. Before initiating oral zuclopenthixol treatment, the patient was considered as “markedly ill”.
# [3] = tested on: therapy resistant schizophrenic patient; test: Case reports: therapy resistant schizophrenic patients switched to oral zuclopenthixol; conditions: Case 1, oral, successive, appropriate doses and sufficient duration, compliance controlled
# Excerpt: Therapy resistant schizophrenic patient is a schizophrenic patient who has tried two successive antipsychotic agents for a period of 6 weeks at an appropriate dosage with no significant symptomatic relief of symptoms and who was compliant to pharmacological treatment. This definition comprises determining relief of symptoms by measurement on a clinical scale such as PANSS (positive and negative […] scale). The relief should correspond to a reduction of the PANSS scale of at least 20% after a period of 6 weeks treatment of an appropriate dosage. Lack of relief of symptoms should be assessed prospectively and should not be documented on the basis of historical information. Compliance to treatment should be documented through a third party such as nurse or care giver. […]
# Case 3. […] After 8 weeks of treatment with zuclopenthixol, the patient was evaluated as having “much improved”, as confirmed by C.G.I. and P.A.N.S.S.
# Case 4. […] After 8 weeks of treatment with zuclopenthixol, the patient was evaluated as having “much improved”, as confirmed by C.G.I. and P.A.N.S.S.
# Case 5. […] After 8 weeks of treatment with zuclopenthixol, the patient was evaluated as having “much improved”, as confirmed by C.G.I. and P.A.N.S.S.
# [4] = tested on: therapy refractory schizophrenic patient; test: Case report: therapy refractory schizophrenia, switched to oral zuclopenthixol; conditions: appropriate doses, sufficient duration, significant troublesome residual symptoms remained
# Excerpt: Subject two diagnosed with therapy refractory schizophrenia for the first time The patient had been treated with appropriate doses and for sufficient duration with oral aripiprazole, oral loxapine and oral olanzapine at appropriate doses and for sufficient duration. Compliance with treatment was ascertained. […] The patient was then switched to oral zuclopenthixol.
compound,measurement,setting,value
CN(C)CCCC1(c2ccc(F)cc2)OCc2cc(C#N)ccc21 (centres unmarked) [citalopram],outcome under previous antidepressants,[1],regularly experiencing new episodes of depression
same,response to previous treatments,[2],without satisfactory response
CN1CCN(C2=Nc3cc(Cl)ccc3Nc3ccccc32)CC1 [clozapine],response to previous antipsychotic agents,[3],did not respond
[Li] [lithium],response to previous treatments,[2],without satisfactory response
CN1CCN(C2=Nc3ccccc3Oc3ccc(Cl)cc32)CC1 [loxapine],response to previous antipsychotics,[4],significant relief of symptoms
